PubChem BioAssay AID493246 – Drosophila RNAi Screening Center, 2011

Purpose: 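Genes fly cells need to grow and stay alive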 (primary screen)
System: Drosophila Kc and S2R+ cells
Reagents: long dsRNA against Drosophila genes
Measured: 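Cell number per well after knock-down, printed as raw plate values; calls were based on per-plate z-scores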
Scale: Kc cell number and S2R+ cell number: higher = more cells remaining
Call rule: 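Counted as a hit if cell number falls by a z-score of at least 3 within its plate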
In all, the deposit lists about 21,000 reagents; below is an unselected part of those with a known target gene and a result. In the full data, 429 (2%) were called active. 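Values are raw and not normalised between plates; calls rest on per-plate z-scores that were not deposited.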 Unmarked entries are inactive. A plus sign joins genes that one reagent is predicted to hit. Not given: the amount of reagent, the time to read-out.

| gene knocked down | dsRNA | Kc cell number, rep 1 | Kc cell number, rep 2 | S2R+ cell number, rep 1 | S2R+ cell number, rep 2 |
| --- | --- | --- | --- | --- | --- |
| CG10576 | DRSC09745 | 1.10e6 | 1.41e6 | 1.24e6 | 9.01e5 |
| Arr1 (Arrestin 1) | DRSC01867 | 1.90e6 | 1.87e6 | 1.44e6 | 1.58e6 |
| CG9500 | DRSC03237 | 1.59e6 | 1.67e6 | 1.23e6 | 1.48e6 |
| CG11655 | DRSC19413 | 1.48e6 | 1.51e6 | 8.67e5 | 1.01e6 |
| Lcp3 (Larval cuticle protein 3) | DRSC07457 | 1.56e6 | 1.65e6 | 1.27e6 | 1.37e6 |
| Vha26 (Vacuolar H[+]-ATPase 26kD subunit) | DRSC12371 | 1.41e6 | 1.51e6 | 1.15e6 | 1.25e6 |
| CG42496 + Ppcdc | DRSC03886 | 1.38e6 | 1.40e6 | 9.73e5 | 1.15e6 |
| Ptp99A (Protein tyrosine phosphatase 99A) | DRSC13933 | 1.44e6 | 1.59e6 | 1.04e6 | 1.21e6 |
| Ptp99A (Protein tyrosine phosphatase 99A) | DRSC13939 | 1.07e6 | 1.34e6 | 1.10e6 | 1.07e6 |
| Ptp99A (Protein tyrosine phosphatase 99A) | DRSC14319 | 1.44e6 | 1.46e6 | 9.74e5 | 1.12e6 |
| Ptp99A (Protein tyrosine phosphatase 99A) | DRSC14320 | 1.46e6 | 1.54e6 | 1.05e6 | 1.09e6 |
| Ptp99A (Protein tyrosine phosphatase 99A) | DRSC16803 | 1.53e6 | 1.53e6 | 1.02e6 | 1.10e6 |
| Syx18 (Syntaxin 18) | DRSC14628 | 1.63e6 | 1.67e6 | 1.05e6 | 1.14e6 |
| MagR (Magnetic receptor) | DRSC20092 | 1.51e6 (active) | 1.54e6 | 7.06e5 | 8.04e5 |
| CG14515 | DRSC14867 | 1.44e6 | 1.47e6 | 1.01e6 | 1.16e6 |
| CG7872 | DRSC20062 | 5.69e5 | – | 8.43e5 | – |
| CG33303 | DRSC02848 | 1.52e6 | 1.68e6 | 1.31e6 | 1.48e6 |
| CG4669 | DRSC10440 | 1.37e6 | 1.38e6 | 1.40e6 | 1.30e6 |
| Erk7 (Extracellularly regulated kinase 7) | DRSC18127 | 1.55e6 | 1.52e6 | 1.04e6 | 1.11e6 |
| Erk7 (Extracellularly regulated kinase 7) | DRSC18227 | 1.54e6 | 1.49e6 | 1.04e6 | 1.06e6 |
| CG15719 | DRSC19685 | 1.57e6 | 1.68e6 | 1.02e6 | 1.18e6 |
| CG10338 | DRSC02039 | 1.58e6 | 1.63e6 | 1.35e6 | 2.73e5 |
| CG30002 | DRSC05182 | 1.46e6 | 1.51e6 | 1.00e6 | 1.07e6 |
| CG15699 (retired record) | DRSC06571 | 1.77e6 | 1.76e6 | 1.09e6 | 1.21e6 |
| CG1463 | DRSC19603 | 5.40e5 | – | 8.86e5 | – |
| Cyp4d8 (Cytochrome P450 4d8) | DRSC11131 | 1.31e6 | 1.39e6 | 1.06e6 | 1.05e6 |
| LysB (Lysozyme B) | DRSC08673 | 1.44e6 | 1.34e6 | 9.65e5 | 1.23e6 |
| LTV1 (LTV1 ribosome biogenesis factor) | DRSC05951 | 1.23e6 | 1.30e6 | 1.16e6 | 1.13e6 |
| Pp4-19C (Protein phosphatase 19C) | DRSC20559 | 1.33e6 | 1.36e6 | 8.23e5 | 9.57e5 |
| Pp4-19C (Protein phosphatase 19C) | DRSC21251 | 1.43e6 | 1.43e6 | 8.72e5 | 1.00e6 |
| Tango5 (Transport and Golgi organization 5) | DRSC18023 | 5.93e5 | – | 9.24e5 | – |
| tou (toutatis) | DRSC06006 | 1.40e6 | 1.44e6 | 1.12e6 | 1.20e6 |
| CG12299 | DRSC02158 | 1.07e6 | 1.14e6 | 1.08e6 | 9.92e5 |

Next part; the last 4 above are carried over.
| gene knocked down | dsRNA | Kc cell number, rep 1 | Kc cell number, rep 2 | S2R+ cell number, rep 1 | S2R+ cell number, rep 2 |
| --- | --- | --- | --- | --- | --- |
| Pp4-19C (Protein phosphatase 19C) | DRSC21251 | 1.43e6 | 1.43e6 | 8.72e5 | 1.00e6 |
| Tango5 (Transport and Golgi organization 5) | DRSC18023 | 5.93e5 | – | 9.24e5 | – |
| tou (toutatis) | DRSC06006 | 1.40e6 | 1.44e6 | 1.12e6 | 1.20e6 |
| CG12299 | DRSC02158 | 1.07e6 | 1.14e6 | 1.08e6 | 9.92e5 |
| Cpr65Ec (Cuticular protein 65Ec) | DRSC11025 | 1.45e6 | 1.27e6 | 1.27e6 | 1.44e6 |
| CG14362 | DRSC14824 | 1.21e6 | 1.24e6 | 1.17e6 | 1.29e6 |
| HINT1 (histidine triad nucleotide binding protein 1) | DRSC00548 | 1.74e6 | 1.74e6 | 1.13e6 | 1.29e6 |
| Ctu2 (Cytosolic thiouridylase subunit 2) | DRSC02024 | 1.45e6 | 1.47e6 | 1.34e6 | 1.42e6 |
| CG7650 | DRSC10898 | 1.64e6 | 1.63e6 | 1.19e6 | 1.36e6 |
| Eaf6 (Esa1-associated factor 6) | DRSC09901 | 1.33e6 | 1.16e6 | 1.22e6 | 1.26e6 |
| CG5056 | DRSC02808 | 1.47e6 | 1.55e6 | 1.25e6 | 1.38e6 |
| Cont (Contactin) | DRSC12149 | 1.67e6 | 1.69e6 | 1.34e6 | 1.42e6 |
| CG10366 | DRSC02046 | 1.41e6 | 1.46e6 | 1.42e6 | 1.42e6 |
| CG34234 + Dh44-R2 | DRSC07278 | 1.34e6 | 1.52e6 | 1.12e6 | 1.10e6 |
| Hmgcr (HMG Coenzyme A reductase) | DRSC16704 | 1.42e6 | 1.54e6 | 8.12e5 | 9.54e5 |
| CG6733 | DRSC16103 | 1.56e6 | 1.68e6 | 1.05e6 | 1.10e6 |
| CG13501 | DRSC04146 | 1.70e6 | 1.82e6 | 1.27e6 | 3.22e5 |
| CG15628 | DRSC00256 | 1.15e6 (active) | 1.19e6 | 7.16e5 | 8.33e5 |
| CG15628 | DRSC00463 | 1.47e6 | 1.40e6 | 1.19e6 | 1.33e6 |
| Chchd3 (Coiled-coil-helix-coiled-coil-helix domain containing 3) | DRSC16981 | 1.39e6 | 1.42e6 | 7.22e5 | 8.28e5 |
| CG31223 | DRSC15115 | 1.63e6 | 1.60e6 | 1.27e6 | 1.32e6 |
| l(3)72Dp (lethal (3) 72Dp) | DRSC10477 | 1.38e6 | 1.54e6 | 1.31e6 | 1.42e6 |
| CG5335 | DRSC06931 | 1.37e6 | 1.47e6 | 1.23e6 | 1.26e6 |
| PNUTS (Phosphatase 1 nuclear targeting subunit) | DRSC00638 | 1.23e6 | 1.21e6 | 7.54e5 | 8.85e5 |
| svp (seven up) | DRSC12899 | 1.33e6 | 1.53e6 | 1.02e6 | 1.18e6 |
| svp (seven up) | DRSC15311 | 3.06e5 (active) | 3.18e5 | 4.78e5 | 5.25e5 |
| svp (seven up) | DRSC17075 | 1.28e6 | 1.32e6 | 1.01e6 | 1.13e6 |
| CG11409 | DRSC18579 | 5.59e5 | – | 8.07e5 | – |
| CG17202 | DRSC15194 | 1.61e6 | 1.77e6 | 1.14e6 | 1.21e6 |
| CG1943 | DRSC12576 | 1.37e6 | 1.55e6 | 1.20e6 | 1.29e6 |
